No constants are given. Whether binding was seen depends on the method and setting. Binding seen in cells or lysates may run through a third protein. A yes stands for co-enrichment or nearness to the bait. Other partners may have been found. Tags and fused reporters may be left off the sequences shown.
Biological target: T1, Tripartite motif containing 59 (TRIM59), flag-tagged, over-expressed (UniProt Q8IWR1)
T1 sequence: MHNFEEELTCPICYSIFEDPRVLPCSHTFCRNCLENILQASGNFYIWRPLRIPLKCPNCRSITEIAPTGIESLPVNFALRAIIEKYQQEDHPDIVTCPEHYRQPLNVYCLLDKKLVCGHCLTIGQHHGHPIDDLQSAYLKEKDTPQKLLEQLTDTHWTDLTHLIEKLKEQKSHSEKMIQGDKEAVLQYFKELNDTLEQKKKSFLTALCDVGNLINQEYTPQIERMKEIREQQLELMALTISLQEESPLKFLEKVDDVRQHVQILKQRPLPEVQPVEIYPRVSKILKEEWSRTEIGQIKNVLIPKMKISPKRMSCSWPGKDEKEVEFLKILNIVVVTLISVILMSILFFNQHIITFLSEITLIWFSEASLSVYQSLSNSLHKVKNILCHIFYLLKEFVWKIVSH
Assay: affinity purification with mass spectrometry; lysate (Western and IP cell lysis buffer) of PASMCs infected with TRIM59 over-expression; immunoprecipitated with anti-flag antibody crosslinked to beads; eluted proteins identified by HPLC-MS/MS

Sequences of proteins named here, by UniProt entry; tags and fusion partners are left off.
UniProt P62993: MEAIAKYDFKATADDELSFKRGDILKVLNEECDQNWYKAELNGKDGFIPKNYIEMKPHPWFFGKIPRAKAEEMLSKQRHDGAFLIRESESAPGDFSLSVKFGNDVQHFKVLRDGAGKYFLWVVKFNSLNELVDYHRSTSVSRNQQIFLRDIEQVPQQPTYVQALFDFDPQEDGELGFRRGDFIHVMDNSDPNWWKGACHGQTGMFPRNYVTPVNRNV
UniProt P12270: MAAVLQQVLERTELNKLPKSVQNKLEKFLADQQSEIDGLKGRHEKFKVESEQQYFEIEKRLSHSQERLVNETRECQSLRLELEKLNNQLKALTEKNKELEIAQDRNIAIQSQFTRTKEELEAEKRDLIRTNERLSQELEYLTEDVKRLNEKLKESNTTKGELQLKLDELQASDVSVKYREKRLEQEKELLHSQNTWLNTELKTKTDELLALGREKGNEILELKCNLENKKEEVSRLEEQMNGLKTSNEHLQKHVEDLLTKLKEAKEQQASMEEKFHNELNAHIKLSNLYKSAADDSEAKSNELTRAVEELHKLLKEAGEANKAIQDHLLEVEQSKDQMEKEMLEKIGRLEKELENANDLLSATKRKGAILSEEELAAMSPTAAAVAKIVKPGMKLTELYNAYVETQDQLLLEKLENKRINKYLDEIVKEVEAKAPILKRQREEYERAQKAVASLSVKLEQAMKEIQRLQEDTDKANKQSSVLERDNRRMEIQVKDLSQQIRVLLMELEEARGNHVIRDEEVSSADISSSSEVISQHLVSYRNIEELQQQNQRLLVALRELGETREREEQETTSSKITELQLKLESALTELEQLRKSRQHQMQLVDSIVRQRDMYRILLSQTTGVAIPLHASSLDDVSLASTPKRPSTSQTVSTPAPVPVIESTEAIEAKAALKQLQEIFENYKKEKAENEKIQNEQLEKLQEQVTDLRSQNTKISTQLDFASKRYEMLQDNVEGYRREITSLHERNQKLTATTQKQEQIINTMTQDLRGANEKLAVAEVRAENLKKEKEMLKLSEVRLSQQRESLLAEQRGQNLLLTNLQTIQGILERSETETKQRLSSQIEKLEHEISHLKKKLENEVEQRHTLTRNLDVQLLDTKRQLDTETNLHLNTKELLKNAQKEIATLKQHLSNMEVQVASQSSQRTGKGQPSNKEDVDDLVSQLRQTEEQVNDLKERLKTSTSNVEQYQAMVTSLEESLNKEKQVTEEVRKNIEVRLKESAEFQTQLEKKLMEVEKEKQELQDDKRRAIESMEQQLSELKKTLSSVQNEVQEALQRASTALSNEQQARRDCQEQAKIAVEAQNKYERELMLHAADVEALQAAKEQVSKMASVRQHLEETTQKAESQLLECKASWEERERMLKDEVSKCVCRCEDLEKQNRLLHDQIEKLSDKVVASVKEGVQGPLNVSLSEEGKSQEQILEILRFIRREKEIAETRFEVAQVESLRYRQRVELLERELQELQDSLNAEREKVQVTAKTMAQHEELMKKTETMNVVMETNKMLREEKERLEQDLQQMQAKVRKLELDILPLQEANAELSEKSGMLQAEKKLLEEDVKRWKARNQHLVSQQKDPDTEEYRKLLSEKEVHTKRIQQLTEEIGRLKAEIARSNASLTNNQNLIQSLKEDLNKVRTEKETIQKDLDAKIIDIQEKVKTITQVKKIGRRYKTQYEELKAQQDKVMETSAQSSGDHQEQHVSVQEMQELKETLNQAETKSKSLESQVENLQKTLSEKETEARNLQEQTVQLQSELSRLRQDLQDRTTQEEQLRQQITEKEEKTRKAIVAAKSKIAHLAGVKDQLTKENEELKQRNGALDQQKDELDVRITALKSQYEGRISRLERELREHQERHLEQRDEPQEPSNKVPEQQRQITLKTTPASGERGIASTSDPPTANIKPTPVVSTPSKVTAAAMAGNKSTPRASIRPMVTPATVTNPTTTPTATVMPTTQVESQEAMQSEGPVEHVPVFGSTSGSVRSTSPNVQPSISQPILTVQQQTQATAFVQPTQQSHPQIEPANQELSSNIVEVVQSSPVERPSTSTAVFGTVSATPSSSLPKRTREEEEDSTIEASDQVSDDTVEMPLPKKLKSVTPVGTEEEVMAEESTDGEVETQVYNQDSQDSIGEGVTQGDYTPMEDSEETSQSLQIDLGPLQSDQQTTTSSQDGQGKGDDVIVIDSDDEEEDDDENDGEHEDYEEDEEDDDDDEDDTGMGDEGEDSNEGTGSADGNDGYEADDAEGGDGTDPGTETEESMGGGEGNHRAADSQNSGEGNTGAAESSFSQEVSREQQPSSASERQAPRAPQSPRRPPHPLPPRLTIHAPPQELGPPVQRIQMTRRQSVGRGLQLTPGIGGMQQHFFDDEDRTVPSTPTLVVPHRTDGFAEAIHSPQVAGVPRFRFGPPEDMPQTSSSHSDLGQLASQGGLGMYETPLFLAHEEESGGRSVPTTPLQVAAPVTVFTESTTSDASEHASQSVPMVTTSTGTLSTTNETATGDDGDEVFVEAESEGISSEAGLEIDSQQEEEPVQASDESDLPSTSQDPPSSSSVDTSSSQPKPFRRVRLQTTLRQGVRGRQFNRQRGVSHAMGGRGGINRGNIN
UniProt Q07820: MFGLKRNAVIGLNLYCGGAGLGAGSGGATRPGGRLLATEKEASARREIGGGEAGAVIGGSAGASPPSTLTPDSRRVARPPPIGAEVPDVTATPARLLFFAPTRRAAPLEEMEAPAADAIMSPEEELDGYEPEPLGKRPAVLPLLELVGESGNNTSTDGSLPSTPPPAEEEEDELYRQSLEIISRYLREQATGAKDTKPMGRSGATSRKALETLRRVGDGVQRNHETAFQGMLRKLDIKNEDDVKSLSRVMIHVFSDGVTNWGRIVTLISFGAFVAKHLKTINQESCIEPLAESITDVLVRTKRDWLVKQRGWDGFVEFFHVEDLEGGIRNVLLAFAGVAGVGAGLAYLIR
UniProt P26599: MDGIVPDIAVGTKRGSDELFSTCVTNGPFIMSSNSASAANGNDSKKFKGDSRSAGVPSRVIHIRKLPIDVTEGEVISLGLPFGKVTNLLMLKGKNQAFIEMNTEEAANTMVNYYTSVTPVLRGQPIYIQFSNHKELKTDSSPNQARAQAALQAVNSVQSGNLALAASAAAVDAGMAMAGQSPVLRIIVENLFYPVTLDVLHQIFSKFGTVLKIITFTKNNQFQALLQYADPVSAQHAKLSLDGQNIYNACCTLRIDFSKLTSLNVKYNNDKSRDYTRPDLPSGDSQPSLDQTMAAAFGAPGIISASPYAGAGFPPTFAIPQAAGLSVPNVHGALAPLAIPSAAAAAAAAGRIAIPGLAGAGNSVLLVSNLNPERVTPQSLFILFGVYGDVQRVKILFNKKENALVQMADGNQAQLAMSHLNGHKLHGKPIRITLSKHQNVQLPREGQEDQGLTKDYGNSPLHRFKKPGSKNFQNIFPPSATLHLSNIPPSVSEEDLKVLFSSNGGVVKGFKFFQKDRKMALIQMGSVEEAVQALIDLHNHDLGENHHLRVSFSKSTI

Row | Substance | binding
1 | Growth factor receptor-bound protein 2 (from UniProt P62993 1-217) | binds
2 | Nucleoprotein TPR (from UniProt P12270 1-2363) | binds
3 | Induced myeloid leukemia cell differentiation protein Mcl-1 (from UniProt Q07820 1-350) | binds
4 | Polypyrimidine tract-binding protein 1 (from UniProt P26599 1-557) | binds
